Values quoted from earlier work, collected in patent US7838234B2, “Methods for determining cancer resistance to histone deacetylase inhibitors” (Pharmacyclics, Inc., priority 2007, dated 2010).
Where two headings read alike, the source gives them in different places. At least one compound was matched to its structure with a doubt left.

Test system: B-cell CLL
Details: cited from earlier work

For `Nc1nc(F)nc2c1ncn2[C@@H]1O[C@H](CO)[C@@H](O)[C@@H]1O` [fludarabine], the median survival (patients resistant in vitro in the DiSC assay) is listed as 7.9 months and the median survival (patients sensitive in vitro in the DiSC assay) is listed as 41.7 months.
